Assay results as given in patent publication US12102705B2, “Peptides having inhibitory activity on muscarinic receptor M3” (AZIENDE CHIMICHE RIUNITE ANGELINI FRANCESCO—A.C.R.A.F. …, priority 2018, dated 2024).
Some of these results come from one statement about several compounds together.

Chains of the proteins cited; added tags and fusions are not shown.
UniProt P20309, whole entry: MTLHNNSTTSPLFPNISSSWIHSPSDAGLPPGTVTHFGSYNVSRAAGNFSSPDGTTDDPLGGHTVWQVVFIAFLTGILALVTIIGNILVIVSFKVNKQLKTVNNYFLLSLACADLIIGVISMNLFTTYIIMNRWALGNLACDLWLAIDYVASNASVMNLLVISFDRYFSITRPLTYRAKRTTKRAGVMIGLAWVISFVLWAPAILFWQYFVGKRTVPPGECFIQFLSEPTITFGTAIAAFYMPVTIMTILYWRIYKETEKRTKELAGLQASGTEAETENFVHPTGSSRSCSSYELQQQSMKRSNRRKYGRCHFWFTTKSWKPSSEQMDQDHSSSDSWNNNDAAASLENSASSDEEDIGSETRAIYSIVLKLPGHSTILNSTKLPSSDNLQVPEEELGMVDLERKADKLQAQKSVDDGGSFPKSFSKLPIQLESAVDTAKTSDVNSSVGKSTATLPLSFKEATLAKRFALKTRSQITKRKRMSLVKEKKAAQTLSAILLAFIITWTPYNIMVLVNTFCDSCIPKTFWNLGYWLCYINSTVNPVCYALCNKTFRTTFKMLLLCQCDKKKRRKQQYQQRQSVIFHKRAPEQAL

Target: T1, human muscarinic receptor M3 (Homo sapiens, UniProt P20309)
T1 construct: expressed in transfected cells; cultured in Ham's F-12 medium
Test: Inhibition of M3-acetylcholine activation, Fluo-4 NW calcium fluorescence
Format: cell-based
Conditions: peptide 10 μM, 50 min incubation, 10 nM acetylcholine
Protocol: Epithelial stable cell line constitutively expressing human muscarinic receptor M3 was used to assess peptides activity. Cells were seeded in 96-well plates at 50% cell confluence in 100 μL of complete Ham's F-12 medium. After 24 hours, medium was removed and cells were incubated with 90 μL/well of a solution of the peptides of the invention at 100, 50 or 10 μM or DMSO as vehicle. Peptides were dissolved in Fluo-4 NW (Invitrogen) fluorescent calcium probe assay buffer containing Probenecid, following manufacturer's instructions for 50 min at 37° C. in a CO2 incubator. Afterwards, M3 activity was determined by reading the fluorescence in a FLUOstar Galaxy reader (BMG LabTechnologies) using 485 nm filter for excitation and 520 nm for emission, recording signal before and after M3 activation with 10 nM acetylcholine. Fluorescence measurements were normalized to acetylcholine maximum fluorescence signal in vehicle treated cells. Atropine (100 nM) was used as positive control for inhibition. Inhibition values of M3 activity were calculated as percentages by considering maximum fluorescence corresponding to acetylcholine-M3 activation and minimum as non-stimulated cells. Table D details inhibition values of M3 activity inhibition obtained for the peptides of invention.

Substance | % M3 inhibition
WMRLK [Seq. ID No. 2] | 40-60%
WMRLKA [Seq. ID No. 3] | 40-60%
